Experimental findings from paper PMC5622089 are described below.

The chains behind the UniProt entries cited, without tags or fusion partners.
UniProt P13864: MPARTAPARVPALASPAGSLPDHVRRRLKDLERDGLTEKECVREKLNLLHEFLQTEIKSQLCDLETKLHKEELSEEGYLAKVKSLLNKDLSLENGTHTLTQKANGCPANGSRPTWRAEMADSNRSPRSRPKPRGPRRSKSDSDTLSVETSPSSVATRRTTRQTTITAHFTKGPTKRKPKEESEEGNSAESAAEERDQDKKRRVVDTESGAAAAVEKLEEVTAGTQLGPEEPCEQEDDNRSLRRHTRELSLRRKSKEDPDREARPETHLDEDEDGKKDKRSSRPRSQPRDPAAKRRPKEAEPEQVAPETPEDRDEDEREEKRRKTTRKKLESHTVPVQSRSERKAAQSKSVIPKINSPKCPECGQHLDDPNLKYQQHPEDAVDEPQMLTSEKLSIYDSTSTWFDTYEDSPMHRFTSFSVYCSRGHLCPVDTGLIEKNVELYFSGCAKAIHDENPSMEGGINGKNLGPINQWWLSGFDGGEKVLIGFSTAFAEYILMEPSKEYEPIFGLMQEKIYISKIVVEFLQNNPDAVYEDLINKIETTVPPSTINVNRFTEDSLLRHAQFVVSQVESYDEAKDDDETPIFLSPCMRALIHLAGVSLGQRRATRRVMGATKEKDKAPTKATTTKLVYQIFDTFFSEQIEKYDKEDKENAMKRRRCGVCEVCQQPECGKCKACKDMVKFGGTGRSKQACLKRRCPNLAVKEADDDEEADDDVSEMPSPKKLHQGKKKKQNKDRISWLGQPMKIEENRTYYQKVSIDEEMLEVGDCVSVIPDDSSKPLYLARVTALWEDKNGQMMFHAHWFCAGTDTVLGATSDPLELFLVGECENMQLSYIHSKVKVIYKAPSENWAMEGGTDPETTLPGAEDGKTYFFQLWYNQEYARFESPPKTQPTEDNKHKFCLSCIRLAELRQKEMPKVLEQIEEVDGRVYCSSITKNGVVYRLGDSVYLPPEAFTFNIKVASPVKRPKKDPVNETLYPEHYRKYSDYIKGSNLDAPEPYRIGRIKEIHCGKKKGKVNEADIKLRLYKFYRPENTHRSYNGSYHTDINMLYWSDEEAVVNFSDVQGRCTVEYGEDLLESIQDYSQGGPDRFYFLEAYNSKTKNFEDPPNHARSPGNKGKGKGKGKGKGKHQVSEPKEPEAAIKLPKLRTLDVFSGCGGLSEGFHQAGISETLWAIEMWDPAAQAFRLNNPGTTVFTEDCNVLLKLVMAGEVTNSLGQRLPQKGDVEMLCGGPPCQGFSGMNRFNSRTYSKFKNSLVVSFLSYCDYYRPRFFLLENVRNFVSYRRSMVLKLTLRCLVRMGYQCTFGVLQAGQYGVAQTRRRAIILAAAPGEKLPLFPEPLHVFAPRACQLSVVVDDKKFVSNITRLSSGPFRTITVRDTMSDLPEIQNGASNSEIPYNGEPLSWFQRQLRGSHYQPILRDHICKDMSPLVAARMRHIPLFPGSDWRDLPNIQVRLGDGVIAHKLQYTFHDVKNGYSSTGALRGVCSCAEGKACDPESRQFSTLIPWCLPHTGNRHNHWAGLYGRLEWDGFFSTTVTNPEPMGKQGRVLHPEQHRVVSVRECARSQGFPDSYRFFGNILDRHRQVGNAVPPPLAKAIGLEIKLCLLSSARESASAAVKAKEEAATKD
UniProt Q5PSV9: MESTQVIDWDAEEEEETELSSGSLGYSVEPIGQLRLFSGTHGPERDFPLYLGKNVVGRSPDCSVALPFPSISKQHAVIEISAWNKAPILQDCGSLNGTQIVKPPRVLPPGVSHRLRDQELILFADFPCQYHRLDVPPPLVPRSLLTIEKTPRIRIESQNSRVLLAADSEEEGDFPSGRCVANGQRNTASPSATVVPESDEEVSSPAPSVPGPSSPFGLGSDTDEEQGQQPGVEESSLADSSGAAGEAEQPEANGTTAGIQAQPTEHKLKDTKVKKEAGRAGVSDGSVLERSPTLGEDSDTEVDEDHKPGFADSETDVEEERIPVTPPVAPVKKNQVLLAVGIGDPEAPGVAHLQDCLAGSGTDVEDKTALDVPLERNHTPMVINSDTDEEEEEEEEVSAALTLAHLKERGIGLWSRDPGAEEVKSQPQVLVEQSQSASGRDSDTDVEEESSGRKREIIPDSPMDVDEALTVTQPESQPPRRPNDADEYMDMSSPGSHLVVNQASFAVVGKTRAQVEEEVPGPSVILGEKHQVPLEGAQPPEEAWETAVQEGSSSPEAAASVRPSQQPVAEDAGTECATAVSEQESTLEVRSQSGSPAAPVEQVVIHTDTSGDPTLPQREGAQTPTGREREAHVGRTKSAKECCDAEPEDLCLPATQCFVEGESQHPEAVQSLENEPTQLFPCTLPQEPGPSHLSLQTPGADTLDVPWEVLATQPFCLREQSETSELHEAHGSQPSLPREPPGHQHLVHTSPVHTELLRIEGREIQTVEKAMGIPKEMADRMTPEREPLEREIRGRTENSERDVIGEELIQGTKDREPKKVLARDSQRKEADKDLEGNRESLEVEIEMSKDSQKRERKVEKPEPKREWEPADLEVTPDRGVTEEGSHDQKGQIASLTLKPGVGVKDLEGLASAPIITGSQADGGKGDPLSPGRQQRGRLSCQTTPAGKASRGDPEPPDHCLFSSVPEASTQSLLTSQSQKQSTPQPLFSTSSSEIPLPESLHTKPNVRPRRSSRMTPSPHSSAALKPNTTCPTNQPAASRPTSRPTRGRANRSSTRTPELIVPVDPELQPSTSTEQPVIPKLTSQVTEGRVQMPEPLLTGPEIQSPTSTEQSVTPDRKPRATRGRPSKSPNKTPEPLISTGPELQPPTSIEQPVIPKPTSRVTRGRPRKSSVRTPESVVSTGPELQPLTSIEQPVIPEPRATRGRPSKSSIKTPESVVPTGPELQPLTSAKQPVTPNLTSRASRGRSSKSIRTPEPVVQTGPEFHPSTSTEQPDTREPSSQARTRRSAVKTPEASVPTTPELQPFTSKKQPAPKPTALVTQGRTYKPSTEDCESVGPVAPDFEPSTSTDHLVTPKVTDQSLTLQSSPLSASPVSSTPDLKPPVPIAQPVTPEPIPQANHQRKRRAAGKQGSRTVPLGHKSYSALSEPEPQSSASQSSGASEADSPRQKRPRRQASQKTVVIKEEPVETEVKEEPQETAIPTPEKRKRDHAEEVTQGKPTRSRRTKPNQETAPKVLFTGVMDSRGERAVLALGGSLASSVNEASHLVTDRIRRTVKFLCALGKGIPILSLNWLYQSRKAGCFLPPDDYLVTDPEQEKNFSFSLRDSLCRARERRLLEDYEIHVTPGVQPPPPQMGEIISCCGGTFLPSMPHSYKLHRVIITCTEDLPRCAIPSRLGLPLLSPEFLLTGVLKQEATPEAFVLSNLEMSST
UniProt P54276: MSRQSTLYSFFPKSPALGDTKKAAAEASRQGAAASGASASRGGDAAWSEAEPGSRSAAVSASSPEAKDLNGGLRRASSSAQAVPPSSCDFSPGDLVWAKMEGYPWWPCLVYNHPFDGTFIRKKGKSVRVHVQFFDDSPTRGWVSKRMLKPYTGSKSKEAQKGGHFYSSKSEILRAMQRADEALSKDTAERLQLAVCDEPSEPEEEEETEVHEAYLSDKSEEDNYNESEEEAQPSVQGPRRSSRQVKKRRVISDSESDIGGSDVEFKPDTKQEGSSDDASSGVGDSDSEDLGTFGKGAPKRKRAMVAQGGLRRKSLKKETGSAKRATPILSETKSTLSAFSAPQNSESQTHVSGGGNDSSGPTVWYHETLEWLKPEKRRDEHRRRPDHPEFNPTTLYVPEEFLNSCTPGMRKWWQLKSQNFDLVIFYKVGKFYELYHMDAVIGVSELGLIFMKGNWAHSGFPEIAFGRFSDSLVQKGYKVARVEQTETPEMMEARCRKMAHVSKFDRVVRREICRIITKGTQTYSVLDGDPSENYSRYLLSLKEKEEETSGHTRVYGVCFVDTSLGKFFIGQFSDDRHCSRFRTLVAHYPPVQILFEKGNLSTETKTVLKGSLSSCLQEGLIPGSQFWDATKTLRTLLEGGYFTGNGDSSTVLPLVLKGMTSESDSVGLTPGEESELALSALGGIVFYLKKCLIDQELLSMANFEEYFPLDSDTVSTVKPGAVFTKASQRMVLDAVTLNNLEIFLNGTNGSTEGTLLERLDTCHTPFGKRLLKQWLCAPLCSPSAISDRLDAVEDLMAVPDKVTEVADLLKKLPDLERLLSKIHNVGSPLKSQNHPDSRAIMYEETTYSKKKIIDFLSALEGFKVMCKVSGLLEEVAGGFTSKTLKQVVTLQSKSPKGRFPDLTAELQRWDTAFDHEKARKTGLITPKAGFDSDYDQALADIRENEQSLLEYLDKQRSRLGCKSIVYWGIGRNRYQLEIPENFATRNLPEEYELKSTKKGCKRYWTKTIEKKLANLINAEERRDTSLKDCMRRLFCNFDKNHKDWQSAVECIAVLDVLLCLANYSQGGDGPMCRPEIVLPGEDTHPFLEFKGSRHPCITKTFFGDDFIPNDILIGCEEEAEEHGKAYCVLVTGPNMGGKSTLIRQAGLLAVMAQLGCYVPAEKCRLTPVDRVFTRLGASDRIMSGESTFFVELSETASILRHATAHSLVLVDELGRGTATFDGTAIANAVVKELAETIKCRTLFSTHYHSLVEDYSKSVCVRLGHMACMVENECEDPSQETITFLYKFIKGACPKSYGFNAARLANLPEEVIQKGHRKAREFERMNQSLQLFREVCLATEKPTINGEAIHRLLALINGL

Results are given in words; binding and its absence hold for the method and conditions named. In cells and extracts the contact can be indirect. A yes stands for co-enrichment or nearness to the bait. Other partners may have been found. Where a sequence is shown, tags or fusion partners need not be part of it.

T1: GST-Zfp296 fusion protein (mouse) (UniProt E9Q6W4)
T1 sequence: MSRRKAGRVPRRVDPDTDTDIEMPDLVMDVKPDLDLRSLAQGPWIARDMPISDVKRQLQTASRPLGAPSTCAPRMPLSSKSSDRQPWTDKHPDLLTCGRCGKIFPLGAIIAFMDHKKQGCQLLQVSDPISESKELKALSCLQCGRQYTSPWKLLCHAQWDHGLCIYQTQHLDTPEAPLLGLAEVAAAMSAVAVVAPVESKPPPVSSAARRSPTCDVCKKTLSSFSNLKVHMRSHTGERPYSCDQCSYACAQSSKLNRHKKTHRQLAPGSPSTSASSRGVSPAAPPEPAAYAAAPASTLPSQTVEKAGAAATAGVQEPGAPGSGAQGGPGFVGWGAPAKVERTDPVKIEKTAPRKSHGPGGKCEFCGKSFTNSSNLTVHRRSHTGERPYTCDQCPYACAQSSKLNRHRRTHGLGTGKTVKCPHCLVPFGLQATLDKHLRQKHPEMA

B1: LIG3 (protein, UniProt P97386 1-1015)
chain: MTLAFKILFPRNLCALGRKELCLFPEQNRWAAISQFSQWSETNLLGGCCLLQRRKPVLALQRGHLRPRATHLTFWPGSHVGLCTGPCAMAEQRFCVDYAKRGTAGCKKCKEKIVKGVCRIGKVVPNPFSESGGDMKEWYHIKCMFEKLERARATTKKIEDLTELEGWEELEDNEKEQISQHIADLSSKAAATPKKKAAVQAKLTTTGQVTSPVKGASFITSTNPRKFSGFSAAKPNNSEQAPSSPAPGTSLSASKCDPKHKDCLLREFRKLCAMVAENPSYNTKTQIIHDFLQKGSTGGFSDGFHGDVYLTVKLLLPGVIKSVYNLNDKQIVKLFSRIFNCNPDDMARDLEQGDVSETIRIFFEQSKSFPPAAKSLLTIQEVDAFLLHLSKLTKEDEQQQALQDIASRCTANDLKCIIRLIKHDLKMNSGAKHVLDALDPNAYEAFKASRNLQDVVERVLHNEQEVEKDPGRRRALRVQASLMTPVQPMLAEACKSIEYAMKKCPNGMFSEIKYDGERVQVHKKGDHFSYFSRSLKPVLPHKVAHFKDYIPKAFPGGQSMILDSEVLLIDNNTGKPLPFGTLGVHKKAAFQDANVCLFVFDCIYFNDVSLMDRPLCERRKFLHDNMVEIRNRIMFSEMKQVTKASDLADMINRVIREGLEGLVLKDVKGTYEPGKRHWLKVKKDYLNEGAMADTADLVVLGAFYGQGSKGGMMSIFLMGCYDPDSQKWCTVTKCAGGHDDATLARLQKELVMVKISKDPSKIPSWLKINKIYYPDFIVPDPKKAAVWEITGAEFSRSEAHTADGISIRFPRCTRIRDDKDWKSATNLPQLKELYQLSKDKADFAVVAGDEASPTTGGSSGENEGTAGSAGPCKGPPSKSSASAKTTEQKLNSPSSRGGIKPIPKHSPMKPGEKLAVKSSPVKVGMKRKATDETPCLKKVLLDVFTGVRLYLPPSTPDFKRLKRYFVAFDGDLVQEFDMGSATHVLGNREKNTDAQLVSSEWIWACIRKRRLIAPC

The assay concerns the target T1, GST-Zfp296 fusion protein (mouse). Put plainly: affinity purification with mass spectrometry; purified GST-Zfp296 or GST bound to glutathione magnetic beads, incubated overnight at 4 °C with nuclease-treated EB3 mouse ES cell nuclear extract (high-salt extract diluted 3-fold in 20 mM Tris-HCl pH 8.0); washed three times with PBS plus 0.1% Tween-20; LC-MS/MS; 2-fold change cut-off against GST alone; only the target purified.
For the molecule Dnmt1 (from UniProt P13864 1-1620), the binding result is listed as “binds”.

As to Dnmt3b (from UniProt O88509 1-859), the binding result is given as “binds”.

For the molecule H2AX (from UniProt P27661 1-143), the binding result is recorded as “binds”.

MDC1 (from UniProt Q5PSV9 1-1707): the binding entry is “binds”.

On to MSH6 (from UniProt P54276 1-1358), for which the binding entry is given as “binds”.

With B1, the binding entry is listed as “binds”.
